Results reported in the supplement of paper PMC10849652.
The other results are listed elsewhere or left out.

Protein sequences, listed by entry. Tags and fused reporters are not part of them. Lines headed by an entry give the natural chain unless they say otherwise; changes in a name come on top.
UniProt Q9UKI2, whole entry, looked up: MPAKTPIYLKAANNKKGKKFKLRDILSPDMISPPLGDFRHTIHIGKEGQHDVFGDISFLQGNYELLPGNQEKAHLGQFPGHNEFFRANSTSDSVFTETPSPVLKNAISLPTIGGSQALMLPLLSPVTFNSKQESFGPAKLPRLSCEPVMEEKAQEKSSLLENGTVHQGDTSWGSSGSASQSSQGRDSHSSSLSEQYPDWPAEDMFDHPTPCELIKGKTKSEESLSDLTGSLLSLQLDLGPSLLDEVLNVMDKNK
UniProt O75956: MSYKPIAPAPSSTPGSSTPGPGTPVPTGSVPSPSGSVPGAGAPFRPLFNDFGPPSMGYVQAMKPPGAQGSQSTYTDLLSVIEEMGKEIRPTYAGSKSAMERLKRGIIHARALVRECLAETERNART
UniProt Q711Q0: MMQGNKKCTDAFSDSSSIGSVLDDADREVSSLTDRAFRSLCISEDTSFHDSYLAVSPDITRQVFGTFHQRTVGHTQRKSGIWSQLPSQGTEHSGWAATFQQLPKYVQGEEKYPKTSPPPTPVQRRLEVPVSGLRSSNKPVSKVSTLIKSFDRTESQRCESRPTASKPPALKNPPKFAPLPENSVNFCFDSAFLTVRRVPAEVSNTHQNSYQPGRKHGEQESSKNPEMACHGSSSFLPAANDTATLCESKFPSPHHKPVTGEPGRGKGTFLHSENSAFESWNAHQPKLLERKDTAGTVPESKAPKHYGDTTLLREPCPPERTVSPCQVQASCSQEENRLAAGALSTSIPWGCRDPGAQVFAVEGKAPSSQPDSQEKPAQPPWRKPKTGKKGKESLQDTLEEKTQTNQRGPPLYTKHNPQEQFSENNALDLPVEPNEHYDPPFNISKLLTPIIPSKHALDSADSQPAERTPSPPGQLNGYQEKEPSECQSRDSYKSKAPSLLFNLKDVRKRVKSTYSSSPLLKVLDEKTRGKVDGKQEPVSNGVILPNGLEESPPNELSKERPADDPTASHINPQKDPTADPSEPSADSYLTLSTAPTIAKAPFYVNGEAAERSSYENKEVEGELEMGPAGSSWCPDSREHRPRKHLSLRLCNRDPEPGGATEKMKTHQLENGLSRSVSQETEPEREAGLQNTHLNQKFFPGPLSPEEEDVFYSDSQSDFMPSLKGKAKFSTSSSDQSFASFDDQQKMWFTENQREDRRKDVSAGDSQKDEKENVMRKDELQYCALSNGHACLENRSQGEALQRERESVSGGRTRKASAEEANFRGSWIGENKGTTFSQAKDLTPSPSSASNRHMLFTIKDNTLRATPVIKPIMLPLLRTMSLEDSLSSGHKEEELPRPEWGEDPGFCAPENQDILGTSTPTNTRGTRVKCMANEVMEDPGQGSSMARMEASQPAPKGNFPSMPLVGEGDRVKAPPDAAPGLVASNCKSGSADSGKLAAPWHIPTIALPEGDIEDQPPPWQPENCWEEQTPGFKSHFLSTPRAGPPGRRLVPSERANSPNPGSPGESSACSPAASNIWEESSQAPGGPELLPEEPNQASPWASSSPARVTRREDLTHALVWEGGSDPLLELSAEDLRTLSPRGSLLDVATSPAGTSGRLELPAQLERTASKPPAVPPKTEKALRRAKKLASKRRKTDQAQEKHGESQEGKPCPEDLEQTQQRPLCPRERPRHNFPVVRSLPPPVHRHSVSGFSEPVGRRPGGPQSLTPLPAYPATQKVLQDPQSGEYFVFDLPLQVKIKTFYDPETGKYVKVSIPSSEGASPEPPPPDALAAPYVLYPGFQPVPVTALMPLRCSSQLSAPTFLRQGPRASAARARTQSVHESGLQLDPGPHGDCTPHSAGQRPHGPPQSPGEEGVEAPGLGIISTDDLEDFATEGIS
UniProt Q49AH0, whole entry, looked up: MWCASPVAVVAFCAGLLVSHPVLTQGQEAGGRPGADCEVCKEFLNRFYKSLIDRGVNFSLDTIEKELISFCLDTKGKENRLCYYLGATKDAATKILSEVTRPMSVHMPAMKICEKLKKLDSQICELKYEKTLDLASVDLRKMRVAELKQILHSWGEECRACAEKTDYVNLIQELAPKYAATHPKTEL
UniProt Q5SW79: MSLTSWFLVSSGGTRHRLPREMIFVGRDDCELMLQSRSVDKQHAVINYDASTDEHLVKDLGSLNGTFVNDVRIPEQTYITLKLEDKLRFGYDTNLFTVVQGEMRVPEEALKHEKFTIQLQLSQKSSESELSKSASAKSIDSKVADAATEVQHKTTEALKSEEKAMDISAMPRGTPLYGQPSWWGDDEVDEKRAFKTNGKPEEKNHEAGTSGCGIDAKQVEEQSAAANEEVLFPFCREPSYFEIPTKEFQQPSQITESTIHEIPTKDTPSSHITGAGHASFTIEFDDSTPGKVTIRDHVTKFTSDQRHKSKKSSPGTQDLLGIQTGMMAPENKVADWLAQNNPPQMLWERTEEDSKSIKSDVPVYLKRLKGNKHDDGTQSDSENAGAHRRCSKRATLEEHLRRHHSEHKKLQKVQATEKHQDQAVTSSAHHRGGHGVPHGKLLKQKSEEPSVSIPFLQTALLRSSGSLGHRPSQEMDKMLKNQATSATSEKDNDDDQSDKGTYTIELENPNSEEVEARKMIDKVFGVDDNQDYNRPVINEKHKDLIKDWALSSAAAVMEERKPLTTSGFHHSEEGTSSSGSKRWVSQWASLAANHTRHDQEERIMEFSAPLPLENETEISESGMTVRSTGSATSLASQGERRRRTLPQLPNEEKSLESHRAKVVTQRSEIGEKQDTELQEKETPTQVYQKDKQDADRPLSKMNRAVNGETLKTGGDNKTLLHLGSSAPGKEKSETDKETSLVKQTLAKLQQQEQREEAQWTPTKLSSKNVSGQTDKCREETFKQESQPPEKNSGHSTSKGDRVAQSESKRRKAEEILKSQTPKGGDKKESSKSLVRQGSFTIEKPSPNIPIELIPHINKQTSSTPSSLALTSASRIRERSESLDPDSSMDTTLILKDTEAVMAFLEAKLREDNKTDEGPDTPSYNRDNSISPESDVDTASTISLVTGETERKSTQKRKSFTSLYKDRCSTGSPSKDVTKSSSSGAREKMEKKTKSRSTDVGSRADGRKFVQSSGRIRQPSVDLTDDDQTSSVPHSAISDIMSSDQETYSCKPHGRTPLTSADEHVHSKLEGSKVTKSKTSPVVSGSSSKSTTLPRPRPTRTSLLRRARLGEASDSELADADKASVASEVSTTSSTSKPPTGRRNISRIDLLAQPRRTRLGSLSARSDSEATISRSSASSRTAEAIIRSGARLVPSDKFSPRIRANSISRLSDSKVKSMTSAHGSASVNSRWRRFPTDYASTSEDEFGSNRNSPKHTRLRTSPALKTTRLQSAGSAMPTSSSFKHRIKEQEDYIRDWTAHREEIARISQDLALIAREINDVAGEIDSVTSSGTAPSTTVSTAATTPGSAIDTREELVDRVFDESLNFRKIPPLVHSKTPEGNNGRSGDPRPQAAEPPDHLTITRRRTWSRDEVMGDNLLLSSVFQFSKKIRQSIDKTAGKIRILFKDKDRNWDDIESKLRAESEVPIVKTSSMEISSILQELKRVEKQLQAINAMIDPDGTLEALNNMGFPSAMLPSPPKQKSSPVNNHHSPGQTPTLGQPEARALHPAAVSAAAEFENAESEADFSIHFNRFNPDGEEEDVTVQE
UniProt Q03701: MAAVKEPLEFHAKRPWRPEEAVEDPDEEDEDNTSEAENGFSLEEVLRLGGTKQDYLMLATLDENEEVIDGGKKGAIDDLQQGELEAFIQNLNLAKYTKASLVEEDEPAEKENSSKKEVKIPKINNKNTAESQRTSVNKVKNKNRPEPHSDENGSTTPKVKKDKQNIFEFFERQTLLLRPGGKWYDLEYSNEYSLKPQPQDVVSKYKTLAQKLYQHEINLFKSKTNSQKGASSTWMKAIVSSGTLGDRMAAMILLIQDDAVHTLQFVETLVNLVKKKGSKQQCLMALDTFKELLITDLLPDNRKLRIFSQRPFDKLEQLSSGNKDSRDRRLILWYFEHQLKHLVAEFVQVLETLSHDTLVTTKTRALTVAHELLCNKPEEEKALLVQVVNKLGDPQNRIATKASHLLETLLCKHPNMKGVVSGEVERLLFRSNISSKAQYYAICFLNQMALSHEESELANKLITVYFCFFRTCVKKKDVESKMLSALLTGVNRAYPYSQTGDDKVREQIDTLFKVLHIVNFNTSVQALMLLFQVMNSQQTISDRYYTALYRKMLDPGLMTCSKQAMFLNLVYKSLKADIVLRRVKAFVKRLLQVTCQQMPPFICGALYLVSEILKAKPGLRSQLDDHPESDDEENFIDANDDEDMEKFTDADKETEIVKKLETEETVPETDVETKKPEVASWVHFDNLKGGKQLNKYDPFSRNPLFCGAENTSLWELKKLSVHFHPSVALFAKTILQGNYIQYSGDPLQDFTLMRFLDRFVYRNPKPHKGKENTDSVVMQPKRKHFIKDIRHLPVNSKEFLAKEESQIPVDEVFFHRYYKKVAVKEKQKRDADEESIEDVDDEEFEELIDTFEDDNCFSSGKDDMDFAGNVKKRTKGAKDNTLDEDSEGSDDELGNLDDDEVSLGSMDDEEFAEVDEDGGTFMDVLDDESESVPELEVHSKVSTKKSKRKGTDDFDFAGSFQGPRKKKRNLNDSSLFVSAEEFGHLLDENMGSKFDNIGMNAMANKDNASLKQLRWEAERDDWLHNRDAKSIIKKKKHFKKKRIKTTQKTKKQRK
UniProt O95813: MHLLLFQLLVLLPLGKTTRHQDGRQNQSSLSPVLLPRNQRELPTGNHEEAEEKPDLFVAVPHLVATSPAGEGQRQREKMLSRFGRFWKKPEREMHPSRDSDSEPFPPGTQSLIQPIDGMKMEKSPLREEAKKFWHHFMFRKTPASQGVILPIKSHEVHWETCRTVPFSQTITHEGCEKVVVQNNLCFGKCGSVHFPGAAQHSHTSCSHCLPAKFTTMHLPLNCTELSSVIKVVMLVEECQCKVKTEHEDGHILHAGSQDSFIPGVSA
UniProt Q92903: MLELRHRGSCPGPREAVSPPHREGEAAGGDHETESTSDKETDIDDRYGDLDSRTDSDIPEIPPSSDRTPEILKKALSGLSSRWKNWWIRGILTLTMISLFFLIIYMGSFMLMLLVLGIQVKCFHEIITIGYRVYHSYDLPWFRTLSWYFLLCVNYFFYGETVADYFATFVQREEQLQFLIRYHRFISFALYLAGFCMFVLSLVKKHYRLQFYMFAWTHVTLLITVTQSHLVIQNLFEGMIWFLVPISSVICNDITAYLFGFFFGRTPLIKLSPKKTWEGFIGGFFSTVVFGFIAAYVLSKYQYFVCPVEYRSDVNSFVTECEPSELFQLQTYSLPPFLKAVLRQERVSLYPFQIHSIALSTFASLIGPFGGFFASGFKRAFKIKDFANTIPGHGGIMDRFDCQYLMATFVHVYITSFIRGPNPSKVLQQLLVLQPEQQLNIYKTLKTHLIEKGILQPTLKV
UniProt Q9NSP4: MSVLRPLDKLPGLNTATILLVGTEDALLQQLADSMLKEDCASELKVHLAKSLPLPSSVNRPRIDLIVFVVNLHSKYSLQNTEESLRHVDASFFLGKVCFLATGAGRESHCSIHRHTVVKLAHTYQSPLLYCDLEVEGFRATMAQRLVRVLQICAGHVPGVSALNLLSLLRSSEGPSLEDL
UniProt P00751, whole entry, looked up: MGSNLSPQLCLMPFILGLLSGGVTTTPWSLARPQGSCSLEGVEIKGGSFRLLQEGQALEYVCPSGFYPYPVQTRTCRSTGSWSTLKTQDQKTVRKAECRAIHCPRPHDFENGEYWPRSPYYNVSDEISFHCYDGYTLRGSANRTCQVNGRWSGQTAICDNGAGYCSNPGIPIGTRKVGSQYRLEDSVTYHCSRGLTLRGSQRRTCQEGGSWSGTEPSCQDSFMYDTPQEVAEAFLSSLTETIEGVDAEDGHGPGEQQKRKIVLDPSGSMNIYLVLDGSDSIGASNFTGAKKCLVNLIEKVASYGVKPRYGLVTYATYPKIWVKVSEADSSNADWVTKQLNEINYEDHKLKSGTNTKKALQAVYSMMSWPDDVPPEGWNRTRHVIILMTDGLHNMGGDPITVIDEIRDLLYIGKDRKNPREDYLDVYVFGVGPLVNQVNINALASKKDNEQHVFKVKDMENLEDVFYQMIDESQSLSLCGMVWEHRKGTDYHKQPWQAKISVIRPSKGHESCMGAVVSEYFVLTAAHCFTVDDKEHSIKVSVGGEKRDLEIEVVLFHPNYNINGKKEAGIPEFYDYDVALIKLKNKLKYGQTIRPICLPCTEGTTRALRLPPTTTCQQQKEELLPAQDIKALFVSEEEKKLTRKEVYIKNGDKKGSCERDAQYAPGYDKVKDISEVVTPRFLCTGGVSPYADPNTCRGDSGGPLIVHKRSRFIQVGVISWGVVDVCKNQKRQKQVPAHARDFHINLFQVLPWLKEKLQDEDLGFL
UniProt Q53HL2: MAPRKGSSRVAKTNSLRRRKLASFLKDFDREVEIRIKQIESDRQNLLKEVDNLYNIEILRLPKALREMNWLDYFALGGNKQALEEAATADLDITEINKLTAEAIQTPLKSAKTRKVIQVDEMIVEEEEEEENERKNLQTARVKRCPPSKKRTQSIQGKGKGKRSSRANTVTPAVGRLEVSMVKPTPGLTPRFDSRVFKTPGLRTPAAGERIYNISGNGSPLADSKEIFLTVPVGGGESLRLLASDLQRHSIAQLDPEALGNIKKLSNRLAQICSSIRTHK

Experiments:
Experiment in all cases: log2 fold change, soluble protein after heating vs DMSO (PISA); higher = thermal stabilisation; K562 cells, 10 uM, 30 min; active = over 0.2 and 3.5 SD of the protein, either way, in both replicates (recomputed)
crizotinib = compound: C[C@@H](Oc1cc(-c2cnn(C3CCNCC3)c2)cnc1N)c1c(Cl)ccc(F)c1Cl [crizotinib]
Summary of the method: (§1)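 Quantification of soluble protein used TMTpro 16plex LC-MS/MS, with channel sums equalised. Samples were the supernatant after 21,000xg for 90 min of pooled aliquots from K562 cells (2×10^6 cells/mL) treated with 10 μM compound for 30 min, heated for 3 min over 48°C-58°C, and extracted in PBS with 0.5% NP-40 at 4°C. Values, from duplicates, describe thermal stability against control samples on a log2 fold-change scale.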

[1] = compound: C[C@@H]1COCCN1C2=NC(=NC(=C2)C3(CC3)S(=O)(=O)C)C4=C5C=CNC5=CC=C4
Summary of the method: as §1

[2] = compound: C[C@H](C1=CC=C(C=C1)C(=O)NC2=C3C=CNC3=NC=C2)N
Summary of the method: as §1

duvelisib = compound: C[C@H](Nc1ncnc2nc[nH]c12)c1cc2cccc(Cl)c2c(=O)n1-c1ccccc1 [duvelisib]
Summary of the method: as §1

[3] = compound: Cc1cc(SCc2sc(-c3ccc(C(F)(F)F)cc3)nc2C)ccc1OCC(=O)O
Summary of the method: as §1

doramapimod = compound: Cc1ccc(-n2nc(C(C)(C)C)cc2NC(=O)Nc2ccc(OCCN3CCOCC3)c3ccccc23)cc1 [doramapimod]
Summary of the method: as §1

nilotinib = compound: Cc1cn(-c2cc(NC(=O)c3ccc(C)c(Nc4nccc(-c5cccnc5)n4)c3)cc(C(F)(F)F)c2)cn1 [nilotinib]
Summary of the method: as §1

[4] = compound: Cc1nc(Nc2n[nH]c3c2CN(C(=O)N[C@H](CN(C)C)c2ccccc2)C3(C)C)c2sccc2n1
Summary of the method: as §1

dasatinib = compound: Cc1nc(Nc2ncc(C(=O)Nc3c(C)cccc3Cl)s2)cc(N2CCN(CCO)CC2)n1 [dasatinib]
Summary of the method: as §1

[5] = compound: Cc1ncc(-c2ccnc(Nc3ccc(S(C)(=O)=O)cc3)n2)n1C(C)C
Summary of the method: as §1

[6] = compound: Cn1cc(-c2ccc3c(c2)CCN3C(=O)Cc2cccc(C(F)(F)F)c2)c2c(N)ncnc21
Summary of the method: as §1

tipifarnib = compound: Cn1cncc1[C@@](N)(c1ccc(Cl)cc1)c1ccc2c(c1)c(-c1cccc(Cl)c1)cc(=O)n2C [tipifarnib]
Summary of the method: as §1

mubritinib = compound: FC(F)(F)c1ccc(/C=C/c2nc(COc3ccc(CCCCn4ccnn4)cc3)co2)cc1 [mubritinib]
Summary of the method: as §1

ispinesib = compound: Cc1ccc(C(=O)N(CCCN)[C@@H](c2nc3cc(Cl)ccc3c(=O)n2Cc2ccccc2)C(C)C)cc1 [ispinesib]
Summary of the method: as §1

bafetinib = compound: Cc1ccc(NC(=O)c2ccc(CN3CC[C@H](N(C)C)C3)c(C(F)(F)F)c2)cc1Nc1nccc(-c2cncnc2)n1 [bafetinib]
Summary of the method: as §1

[7] = compound: Cn1cc(-c2ccc3nnc(C(F)(F)c4ccc5ncccc5c4)n3n2)cn1
Summary of the method: as §1

gandotinib = compound: Cc1cc(Nc2cc(CN3CCOCC3)c3nc(C)c(Cc4ccc(Cl)cc4F)n3n2)n[nH]1 [gandotinib]
Summary of the method: as §1

[8] = compound: Cc1cccc(CC(=O)N2CCc3c2ccc(-c2cn(C)c4ncnc(N)c24)c3F)n1
Summary of the method: as §1

[9] = compound: CS(=O)(=O)c1ccc(-c2cnc(N)c(C(=O)Nc3ccccc3)n2)cc1
Summary of the method: as §1

tozasertib = compound: Cc1cc(Nc2cc(N3CCN(C)CC3)nc(Sc3ccc(NC(=O)C4CC4)cc3)n2)n[nH]1 [tozasertib]
Summary of the method: as §1

Measured: log2 fold change

CENPC (UniProt Q03188)
inactive: crizotinib -0.031 | [1] -0.115 | [2] -0.008 | duvelisib -0.12 | [3] -0.091 | doramapimod 0.178 | nilotinib -0.157 | [4] 0.045 | dasatinib 0.058 | [5] 0.094 | [6] -0.338 | tipifarnib -0.116

CDC42EP3 (UniProt Q9UKI2)
inactive: [1] -0.053 | mubritinib 0.204

CDK2AP2 (UniProt O75956)
inactive: crizotinib 0.213 | [1] 0.173 | [2] -0.015 | doramapimod -0.014 | ispinesib -0.011 | bafetinib 0 | nilotinib 0.04 | [4] 0.028 | [5] -0.063 | [6] -0.022 | [7] -0.039 | mubritinib 0.028

Reprinted from the results shown (2 entries):
CDC42EP3 (UniProt Q9UKI2)
inactive: [1] -0.053 | mubritinib 0.204

CDK2AP2 (UniProt O75956)
inactive: crizotinib 0.213 | [1] 0.173 | [2] -0.015 | doramapimod -0.014 | ispinesib -0.011 | bafetinib 0 | nilotinib 0.04 | [4] 0.028 | [5] -0.063 | [6] -0.022 | [7] -0.039 | mubritinib 0.028

The list continues.

CEFIP (UniProt Q711Q0)
inactive: [1] -0.05 | bafetinib 0.156 | tipifarnib 0.038 | mubritinib 0

CDH2 (UniProt P19022)
inactive: crizotinib 0.146 | gandotinib 0.047 | doramapimod 0.001 | [8] -0.595 | tipifarnib 0.193

CDNF (UniProt Q49AH0)
inactive: crizotinib 0.099 | duvelisib 0.149 | [3] -0.241 | doramapimod 0.069 | dasatinib -0.048

CFL1 (UniProt E9PP50)
inactive: gandotinib -0.085 | [8] 0.592 | nilotinib 1.14 | [4] 0.076 | [5] 0.146

CHD8 (UniProt Q9HCK8)
inactive: [1] 0.147 | ispinesib -0.047 | bafetinib -0.155 | [7] 0.086

CEP170 isoform 3 (UniProt Q5SW79)
inactive: crizotinib -0.537 | doramapimod 0.202 | bafetinib -0.191

CEBPZ (UniProt Q03701)
inactive: [9] -0.215 | [2] 0.261 | duvelisib 0.045 | gandotinib -0.034 | tozasertib 0.014 | [3] 0.016 | [8] -0.079 | dasatinib 0.009 | [6] -0.476 | mubritinib -0.154

CEBPG (UniProt P53567)
inactive: [2] 0.116 | gandotinib 0.11 | ispinesib 0.013 | [8] -0.136 | nilotinib 0.186 | [4] 0.017 | [5] -0.021 | [6] -0.027 | [7] -0.019 | tipifarnib 0.133

CER1 (UniProt O95813)
inactive: gandotinib 0.816 | [8] -0.389

CHMP2A (UniProt M0R1T5)
inactive: tozasertib -0.073 | tipifarnib -0.084 | mubritinib 0.192

CDS1 (UniProt Q92903)
inactive: [1] -0.062 | [2] -0.027 | duvelisib -0.105 | [3] 0.055 | bafetinib -0.008 | dasatinib 0.019 | [6] 0.14 | mubritinib 0.107

CENPM (UniProt Q9NSP4)
inactive: duvelisib 0.214 | [3] 0.116 | dasatinib 0.003

CEND1 (UniProt Q8N111)
inactive: [9] -0.05 | tozasertib -0.109 | ispinesib -0.078 | [7] -0.01 | tipifarnib 0.088

CDH5 (UniProt P33151)
inactive: [9] 0.001 | [1] 0.078 | mubritinib -0.014

CFB (UniProt P00751)
inactive: [9] 0.066 | [2] 0.27 | duvelisib -0.11 | gandotinib -0.018 | [3] -0.079 | ispinesib -0.01 | bafetinib -0.125 | [8] -0.293 | nilotinib -0.062 | [4] 0.075 | dasatinib 0.072 | [5] 0.188 | [6] 0.504 | [7] -0.016 | mubritinib -0.264

CDCA8 (UniProt Q53HL2)
inactive: [9] 0.146 | ispinesib -0.093 | [7] -0.043

CHCHD10 (UniProt Q8WYQ3)
inactive: crizotinib 0.133 | [1] 0.021 | doramapimod 0.061 | ispinesib 0.015 | bafetinib -0.07 | nilotinib -0.015 | [4] -0.005 | [5] -0.005 | [7] 0.157 | tipifarnib -0.027 | mubritinib 0.023

CDR2L (UniProt Q86X02)
inactive: [2] -0.151 | duvelisib 0.045 | gandotinib -0.43 | tozasertib -0.079 | [3] 0.064 | ispinesib -0.257 | [8] 0.038 | dasatinib -0.136 | [6] 0.033 | [7] -0.304
